The results in this text go back to article PMC12037725.

No constants are given. Whether binding was seen depends on the method and setting. Binding seen in cells or lysates may run through a third protein. Some binding calls cover weakened binding; strength is not graded here. For part of these data: Sequences can lack the tags named with a protein.

In experiment [1] the target is T1, BTS (BRUTUS), nYFP fusion for BiFC (Arabidopsis thaliana) (UniProt Q8LPQ5).
T1 sequence: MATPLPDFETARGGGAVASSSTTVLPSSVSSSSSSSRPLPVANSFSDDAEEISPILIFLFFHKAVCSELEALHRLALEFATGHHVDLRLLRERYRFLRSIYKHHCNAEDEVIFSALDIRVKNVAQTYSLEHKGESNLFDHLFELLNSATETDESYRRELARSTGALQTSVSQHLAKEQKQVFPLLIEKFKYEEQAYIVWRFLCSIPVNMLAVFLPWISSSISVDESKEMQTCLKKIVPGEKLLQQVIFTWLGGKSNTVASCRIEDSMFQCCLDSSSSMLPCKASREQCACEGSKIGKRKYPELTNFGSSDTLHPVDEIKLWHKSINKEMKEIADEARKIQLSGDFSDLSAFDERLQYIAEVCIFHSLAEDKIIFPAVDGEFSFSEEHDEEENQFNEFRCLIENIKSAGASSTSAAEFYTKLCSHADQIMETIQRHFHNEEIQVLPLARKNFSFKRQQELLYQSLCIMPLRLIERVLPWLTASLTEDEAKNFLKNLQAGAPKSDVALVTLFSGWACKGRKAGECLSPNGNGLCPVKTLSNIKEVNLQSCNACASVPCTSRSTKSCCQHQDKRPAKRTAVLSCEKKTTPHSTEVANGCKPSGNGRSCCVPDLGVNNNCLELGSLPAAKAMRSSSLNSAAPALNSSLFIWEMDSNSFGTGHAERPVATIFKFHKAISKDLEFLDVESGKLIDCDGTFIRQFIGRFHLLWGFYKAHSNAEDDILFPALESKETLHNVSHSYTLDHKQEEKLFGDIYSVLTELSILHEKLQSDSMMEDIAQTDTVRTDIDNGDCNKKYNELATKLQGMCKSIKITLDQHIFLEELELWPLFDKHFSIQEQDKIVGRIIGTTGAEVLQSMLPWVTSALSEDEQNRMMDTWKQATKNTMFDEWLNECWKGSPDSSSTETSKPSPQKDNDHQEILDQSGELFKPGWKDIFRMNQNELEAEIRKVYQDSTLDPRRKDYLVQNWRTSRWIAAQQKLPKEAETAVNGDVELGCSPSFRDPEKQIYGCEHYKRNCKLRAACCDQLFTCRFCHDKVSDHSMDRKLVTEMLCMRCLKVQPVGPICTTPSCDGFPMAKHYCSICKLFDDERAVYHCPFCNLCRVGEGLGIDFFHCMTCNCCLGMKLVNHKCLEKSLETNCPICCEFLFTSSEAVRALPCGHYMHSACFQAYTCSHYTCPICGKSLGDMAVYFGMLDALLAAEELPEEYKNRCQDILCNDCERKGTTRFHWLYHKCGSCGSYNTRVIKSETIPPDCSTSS
Kind of experiment: split reporter; BiFC with nYFP and cYFP fusions, transiently expressed in N. benthamiana leaves for 48 h (also Arabidopsis protoplasts); confocal microscopy.

Experiment [2] deals with T2, ILR3 (IAA-leucine resistant 3), nYFP fusion for BiFC (Arabidopsis thaliana) (UniProt Q9FH37).
T2 sequence: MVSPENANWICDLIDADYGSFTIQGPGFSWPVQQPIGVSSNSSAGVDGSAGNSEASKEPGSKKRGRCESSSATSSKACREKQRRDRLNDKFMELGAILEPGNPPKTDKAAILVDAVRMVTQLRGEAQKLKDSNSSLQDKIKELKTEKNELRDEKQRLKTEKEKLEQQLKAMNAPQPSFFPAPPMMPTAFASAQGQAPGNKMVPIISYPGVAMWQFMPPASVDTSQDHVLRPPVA
Described as above.

For experiment [3], the target named is T3, ILR3 for co-immunoprecipitation (Arabidopsis thaliana) (UniProt Q9FH37).
T3 sequence: T2 sequence
Kind of experiment: co-IP; proteins transiently expressed in N. benthamiana leaves; immunoblot with anti-FLAG and anti-T7.

Experiment [4] deals with T4, BTS-FLAG for co-immunoprecipitation (Arabidopsis thaliana) (UniProt Q8LPQ5).
T4 sequence: T1 sequence
Described as above.

For experiment [5], the target named is T5, ILR3, luciferase-half fusion for split-LUC (Arabidopsis thaliana) (UniProt Q9FH37).
T5 sequence: T2 sequence
Put plainly: split reporter; split-luciferase complementation imaging; nLUC and cLUC constructs co-infiltrated into N. benthamiana leaves, 0.5 mM luciferin after 48 h, CCD camera.

In experiment [6] the target is T6, BTS (BRUTUS), luciferase-half fusion for split-LUC (Arabidopsis thaliana) (UniProt Q8LPQ5).
T6 sequence: T1 sequence
The experiment is described as above.

B1: RH24 (DEAD-box RNA helicase 24), cYFP fusion for BiFC (enzyme, UniProt O22907 1-760)
chain: MSNRKFGMEGFGINRQTSYSFERSQAPQRLYVPPSSRGGDNSEDADLDNIDYMENEEAEEDIEEGGSAAASGGEVDEIDPLDAFMEGIHQEMKSAPPPKPKEKLERYKDDDDDPVESYLKAKKDLGLTLAADALNAGYNSDEEVYAAAKAVDAGMLDYDSDDNPIVVDKRKIEPITALDHSSIDYEPINKDFYEELESISGMTEQETTDYRQRLGIRVSGFDVHRPVKTFEDCGFSSQIMSAIKKQAYEKPTAIQCQALPIVLSGRDVIGIAKTGSGKTAAFVLPMIVHIMDQPELQRDEGPIGVICAPTRELAHQIFLEAKKFSKAYGLRVSAVYGGMSKHEQFKELKAGCEIVVATPGRLIDMLKMKALTMMRASYLVLDEADRMFDLGFEPQVRSIVGQIRPDRQTLLFSATMPWKVEKLAREILSDPIRVTVGEVGMANEDITQVVNVIPSDAEKLPWLLEKLPGMIDEGDVLVFASKKATVDEIEAQLTLNSFKVAALHGDKDQASRMETLQKFKSGVHHVLIATDVAARGLDIKSLKTVVNYDIAKDMDMHVHRIGRTGRAGDRDGVAYTLVTQREARFAGELVNSLVAAGQNVPPELTDLAMKDGRFKSKRDGRKGGKKGRGGGGGNKGVRGVDFGLGIGFSSESSRTPSSKAAPSRSGAINSVRTGVMAQFKNSFVAATPSNPQNQAYPNKRPSLMGFVSGGTIGGDMGRTQSQAPPVAPTQNASSHNSSQNHSQSSENRPRERKRRSGWDN
Consider B1, for which the binding result in experiment [1] and in experiment [2] was “binds” in each case.

B2: RH24-T7 for co-immunoprecipitation (enzyme, UniProt O22907 1-760)
chain: B1 chain
In the case of B2, the binding entry in experiment [3] and in experiment [4] was “binds” each time.

B3: RH24, luciferase-half fusion for split-LUC (enzyme, UniProt O22907 1-760)
chain: B1 chain
As to B3, the binding result in experiment [5] and in experiment [6] was “binds” throughout.
